# From PubChem BioAssay AID2685 (National Center for Advancing Translational Sciences (NCATS), 2010)
# The other results are listed elsewhere or left out. Further columns of the screen follow, without active or inactive calls. Compounds called inactive in the main read-out are mostly missing here. The note in brackets gives the kind of curve behind each potency; many fits are weak.
# Experiment: qHTS Assay for Lipid Storage Modulators in Drosophila S3 Cells;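 on cell number change: cells counted by Cell Tracker Red CMTPX staining in the red channel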
# Details: BODIPY lipid droplet fluorescence, 18-24 h; for cell number change: measured here: cell count max response, cells fed with added oleic acid
# Summary of the method: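 Drosophila S3 cells loaded with oleic acid (400 uM, as added) and compounds at several concentrations; lipid droplets imaged by 488-nm laser-scanning cytometry, 500–530 nm intensity and object ratio to cell channel. Percent activity normalized to 20 uM Triacsin C.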
# [1] = measured here: cell number channel AC50, cells fed with added oleic acid
# [2] = measured here: lipid fluorescence (Fed channel) AC50, cells fed with added oleic acid
Compound,cell number change [%],AC50 [1],AC50 [2]
NC(=O)C1CCN(C(=S)NCc2ccc3c(c2)OCO3)CC1,-18.7,"2.91 µM [falling, single point]","3.66 µM [falling, full curve]"
CSCCC(NC(=O)COc1ccccc1)C(=O)NCc1cccs1 (centres undefined),-20.2,–,"6.51 µM [falling, single point]"
NS(=O)(=O)c1ccc(Nc2nc(-c3ccc4ccccc4c3)cs2)cc1,-8.52,"0.259 µM [rising, full curve, poor fit]","0.146 µM [rising, full curve, poor fit]"
Clc1ccc(/C=N/N2CCN(Cc3ccccc3Cl)CC2)cc1,-9.89,–,"6.51 µM [rising, partial curve, poor fit]"
COc1ccccc1N1CCN(C(=O)C2CCN(S(=O)(=O)c3ccc4c(c3)CC(C)N4C(=O)C3CC3)CC2)CC1 (centres undefined),19.7,–,"5.8 µM [falling, single point]"
COc1ccc(Nc2sc(C(=O)Nc3cccc(Cl)c3)c(N)c2C(=O)Nc2ccccc2OC)cc1,-44.8,"18.4 µM [falling, single point]","18.4 µM [falling, single point]"
Cc1ccc(CN2CC(C(=O)Nc3cc(S(C)(=O)=O)ccc3Cl)CC2=O)cc1 (centres undefined),47.4,–,–
Cn1ccnc1C(O)c1cc(C(C)(C)C)c(O)c(C(C)(C)C)c1 (centres undefined),38.8,"18.4 µM [rising, single point]","2.31 µM [falling, partial curve, poor fit]"
O=C(CNS(=O)(=O)c1cccc2nsnc12)NCCc1ccccc1,-3.82,–,"29.1 µM [falling, single point]"
CC(=O)c1cc2c(cc1NC(=O)Cn1nc(-c3ccc(C)cc3)ccc1=O)OCO2,-26.9,–,–
COc1ccc(C2(c3ccc(OC)cc3)NC(=O)N(CC(=O)N(C)C3CCC(C)CC3)C2=O)cc1 (centres undefined),27.8,–,"7.31 µM [rising, partial curve]"
N/C(=N\OS(=O)(=O)c1ccc(Br)cc1)c1ccncc1,0.103,–,"13 µM [rising, single point]"
O=C(NC1CC2CCCC(C1)N2C1CC1)NC12CC3CC(CC(C3)C1)C2 (centres undefined),12.6,–,"6.51 µM [falling, single point]"
COc1ccc(C(CC(=O)c2ccccc2)C2CCCCC2=O)cc1 (centres undefined),55.5,–,–
COc1cccc(/C=C/c2nc(S(=O)(=O)c3ccccc3)c(N(C)C)o2)c1,–,–,"5.8 µM [rising, single point]"
Cc1ccc(C)c(S(=O)(=O)N2CCN(CC(=O)Nc3sccc3C#N)CC2)c1,-41.8,"2.31 µM [falling, partial curve, poor fit]","13 µM [falling, partial curve]"
O=C(Nc1ccc(OCc2ccccc2)cc1)c1cccnc1,73.7,"4.11 µM [rising, full curve]","14.6 µM [rising, partial curve]"
O=C(NCc1ccc2c(c1)OCO2)Nc1ccc([N+](=O)[O-])cc1,2.48,"0.411 µM [rising, single point]",–
CC(C)CCn1c(=O)c2sccc2n2c(CCCC(=O)N3CCN(c4ccccn4)CC3)nnc12,-32.7,"5.8 µM [falling, partial curve, poor fit]","4.11 µM [falling, partial curve]"
COc1ccc(N(C(=O)c2ccc(C)cc2)S(=O)(=O)c2cccs2)cc1,–,"2.31 µM [rising, single point]","20.6 µM [rising, single point]"
O=C1CCc2cc(NS(=O)(=O)c3cc(F)ccc3F)cc3c2N1CC3,–,–,"0.13 µM [falling, full curve, poor fit]"
CCc1ccc(Nc2nnc(SCC(=O)NC(=O)CN3CCCC3=O)s2)cc1,-22.6,"3.66 µM [falling, single point]","2.31 µM [falling, partial curve, poor fit]"
CCOc1ccc(Br)cc1/C(C)=N\NC1=NCCN1,-58.6,"10.3 µM [falling, partial curve, poor fit]","6.51 µM [rising, partial curve]"
COc1ccccc1C(=O)Nc1ccc(S(=O)(=O)N2CCOCC2)cc1,–,–,"0.517 µM [rising, partial curve, poor fit]"
NC(=O)c1ccc(N2CCCCC2)c(N2C(=O)CCC2=O)c1,-31.1,–,"29.1 µM [falling, single point]"
O=C(CNC(=O)OCc1ccccc1)Oc1cc2oc(=O)cc(-c3ccccc3)c2cc1Cl,5.59,"6.51 µM [falling, single point]","6.51 µM [falling, single point]"
C=CC[n+]1c(-c2ccc(OCC)cc2)csc1NNC(=O)Nc1ccccc1,-55.7,"1.64 µM [rising, partial curve]","1.84 µM [rising, partial curve]"
O=c1oc2cc(O)ccc2cc1-c1ccccc1,29.3,–,"18.4 µM [rising, single point]"

Compound,cell number change [%],AC50 [1],AC50 [2]
CC1c2cc3c(cc2CCN1C(=O)c1cccc(F)c1)OCCCO3 (centres undefined),7.37,–,"4.11 µM [rising, partial curve, poor fit]"
CC1(c2cccc(Br)c2)NC(=O)N(CC(=O)Nc2ccc(F)cc2)C1=O (centres undefined),26.7,–,"0.00461 µM [rising, full curve, poor fit]"
COc1cc(/C=C\C(=O)O)cc(S(=O)(=O)N2CCCCCC2)c1OC,-10.5,–,–
Cc1c(C(=O)N2CCC2)oc2ccc(Br)cc12,56.5,"16.4 µM [rising, partial curve]","16.4 µM [rising, partial curve]"
COc1ccc2c3c(c(=O)oc2c1OCC(=O)C(C)(C)C)CCCC3,33.9,"1.64 µM [rising, partial curve, poor fit]",–
COc1ccc2nc(SCC(=O)N(C)CC(=O)Nc3ccc(F)cc3)[nH]c2c1,-1.32,–,"1.03 µM [falling, full curve]"
O=C1CSC(=Nc2ccccc2[N+](=O)[O-])N1,-52,"0.651 µM [falling, full curve]","1.46 µM [falling, full curve]"
CCOC(=O)c1c(-c2ccc(OCC)cc2)csc1NC(=O)CCN1C(=O)c2ccccc2C1=O,35.9,"0.58 µM [rising, full curve]","1.46 µM [falling, partial curve, poor fit]"
CCN1C(=O)[C@@H]2Cc3c([nH]c4ccccc34)C(c3cc(OC)c(OC)c(OC)c3)N2C1=S (some centres undefined),3.65,–,"29.1 µM [falling, single point]"
Cc1nn(C)c(Oc2cccc(Cl)c2)c1C=O,-2.09,–,"0.184 µM [falling, partial curve, poor fit]"
CCCCOC(=O)Nc1cccc(C(C)=O)c1,23,–,"29.1 µM [rising, single point]"
CN1C(=O)CC(C(=O)Nc2ccccc2F)SC1=Nc1ccc2c(c1)OCO2 (centres undefined),–,"0.0146 µM [rising, full curve, poor fit]","0.00517 µM [rising, full curve, poor fit]"
COCCNC(=O)C1CCC(CNS(=O)(=O)c2ccc(F)cc2)CC1 (centres undefined),–,–,"29.1 µM [rising, single point]"
Nc1nnc(SCc2cc3c(cc2Cl)OCO3)s1,–,–,"0.411 µM [falling, single point]"
COc1ccc2cc(/C(C)=N/NC(=O)C3CC3)ccc2c1,–,"0.731 µM [rising, single point]","0.58 µM [rising, single point]"
N/C(Cc1ccc(Cl)cc1Cl)=N\OC(=O)c1ccccc1F,7.23,"0.00517 µM [rising, full curve, poor fit]",–
CS(=O)(=O)N1CCN(C(=O)Cc2ccccc2Cl)CC1,-36.7,"2.06 µM [falling, full curve]","2.06 µM [falling, full curve]"
COc1ccccc1C(c1nnnn1Cc1ccccc1)N1CCN(c2nc3ccccc3s2)CC1 (centres undefined),44.4,"1.64 µM [rising, full curve, poor fit]","2.06 µM [rising, full curve]"
O=C(CSc1ccc(-c2ccccn2)nn1)Nc1cccc(F)c1,-4.34,–,–
CS(=O)(=O)c1ccc(NC(=O)c2cccc(S(=O)(=O)N3CCN(Cc4ccccc4)CC3)c2)cc1,-4.91,–,–
Cc1ccc(S(=O)(=O)N2CCN(Cc3cc(C(C)(C)C)ccc3O)CC2)cc1,-3.41,–,"20.6 µM [falling, single point]"
Cc1ccc(CNC(=O)C(CCC(N)=O)NC(=O)OCc2ccccc2)cc1 (centres undefined),3.5,–,"6.51 µM [falling, single point]"
Cc1cc(C(=O)NCCC2=CCCCC2)c(C)o1,-3.7,–,–
CC1CCCN(C/C=C/c2ccccc2[N+](=O)[O-])C1 (centres undefined),-78.8,"29.1 µM [falling, single point]","29.1 µM [falling, single point]"
Cc1ccc(C)c(N2CCN(C(=O)c3cc(S(=O)(=O)N4CCOCC4)ccc3F)CC2)c1,16.7,–,–
CC(=O)c1cccc(NC(=O)CCc2nnc3ccc(NCc4ccco4)nn23)c1,-15.6,–,"25.9 µM [falling, partial curve, poor fit]"
O=C(CN1CCN(C(=O)c2ccco2)CC1)Nc1c2c(nc3c1CCC3)CCCC2,-18.5,–,"6.51 µM [falling, single point]"

# Four entries from above, bar-delimited.
Compound | cell number change [%] | AC50 [1] | AC50 [2]
Clc1ccc(/C=N/N2CCN(Cc3ccccc3Cl)CC2)cc1 | -9.89 | – | 6.51 µM [rising, partial curve, poor fit]
O=C(NCc1ccc2c(c1)OCO2)Nc1ccc([N+](=O)[O-])cc1 | 2.48 | 0.411 µM [rising, single point] | –
CCc1ccc(Nc2nnc(SCC(=O)NC(=O)CN3CCCC3=O)s2)cc1 | -22.6 | 3.66 µM [falling, single point] | 2.31 µM [falling, partial curve, poor fit]
COc1ccc2cc(/C(C)=N/NC(=O)C3CC3)ccc2c1 | – | 0.731 µM [rising, single point] | 0.58 µM [rising, single point]
